Percent effect of library compounds

Chains of the proteins cited; added tags and fusions are not shown.
UniProt I6X8D2, whole entry: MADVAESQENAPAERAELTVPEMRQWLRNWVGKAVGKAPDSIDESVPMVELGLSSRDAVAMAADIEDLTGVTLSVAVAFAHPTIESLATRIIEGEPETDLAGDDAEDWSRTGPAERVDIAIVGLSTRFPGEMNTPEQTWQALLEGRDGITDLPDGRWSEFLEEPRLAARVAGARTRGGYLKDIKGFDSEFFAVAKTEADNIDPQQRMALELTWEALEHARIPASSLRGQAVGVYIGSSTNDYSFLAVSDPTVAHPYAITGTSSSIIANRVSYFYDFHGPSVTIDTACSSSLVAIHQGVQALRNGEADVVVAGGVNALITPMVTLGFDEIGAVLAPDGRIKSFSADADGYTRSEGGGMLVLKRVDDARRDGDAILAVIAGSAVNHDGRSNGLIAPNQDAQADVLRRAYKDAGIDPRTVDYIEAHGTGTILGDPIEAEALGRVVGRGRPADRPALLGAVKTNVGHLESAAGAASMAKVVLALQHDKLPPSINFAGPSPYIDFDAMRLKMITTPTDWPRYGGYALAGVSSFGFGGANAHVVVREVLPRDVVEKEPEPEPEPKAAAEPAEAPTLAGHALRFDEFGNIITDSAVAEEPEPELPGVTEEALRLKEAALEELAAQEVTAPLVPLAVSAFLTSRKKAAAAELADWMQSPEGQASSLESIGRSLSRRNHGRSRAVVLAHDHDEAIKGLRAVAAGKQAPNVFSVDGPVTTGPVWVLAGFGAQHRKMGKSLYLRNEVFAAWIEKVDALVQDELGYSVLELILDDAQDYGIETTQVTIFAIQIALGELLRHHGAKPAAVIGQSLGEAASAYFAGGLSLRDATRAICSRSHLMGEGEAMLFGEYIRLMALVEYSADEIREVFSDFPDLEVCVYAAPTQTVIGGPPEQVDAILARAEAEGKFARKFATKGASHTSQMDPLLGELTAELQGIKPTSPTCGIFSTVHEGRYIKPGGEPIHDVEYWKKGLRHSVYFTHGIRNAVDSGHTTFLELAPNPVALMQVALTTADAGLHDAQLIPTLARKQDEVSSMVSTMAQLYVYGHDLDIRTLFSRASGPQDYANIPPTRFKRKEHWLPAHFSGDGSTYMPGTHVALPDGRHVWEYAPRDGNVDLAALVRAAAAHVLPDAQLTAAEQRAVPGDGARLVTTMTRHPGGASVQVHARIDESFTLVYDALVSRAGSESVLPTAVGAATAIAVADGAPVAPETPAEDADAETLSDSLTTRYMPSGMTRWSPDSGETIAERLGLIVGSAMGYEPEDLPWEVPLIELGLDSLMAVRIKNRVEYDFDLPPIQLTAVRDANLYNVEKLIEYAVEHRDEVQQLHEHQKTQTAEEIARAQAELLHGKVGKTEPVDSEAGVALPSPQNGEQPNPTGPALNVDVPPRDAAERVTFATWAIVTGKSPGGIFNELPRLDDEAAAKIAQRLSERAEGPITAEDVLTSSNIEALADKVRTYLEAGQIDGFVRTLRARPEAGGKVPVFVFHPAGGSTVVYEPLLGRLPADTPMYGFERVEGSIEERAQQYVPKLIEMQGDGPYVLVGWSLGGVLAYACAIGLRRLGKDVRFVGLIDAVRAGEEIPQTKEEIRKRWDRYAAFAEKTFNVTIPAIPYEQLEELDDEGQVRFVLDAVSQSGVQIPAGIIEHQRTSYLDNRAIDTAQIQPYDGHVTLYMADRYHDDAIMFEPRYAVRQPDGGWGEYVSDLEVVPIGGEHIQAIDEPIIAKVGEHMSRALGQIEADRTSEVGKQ

Source: ChEMBL document CHEMBL3988442, “University of Dundee, Small-Polar-MMV Screening Library” (2021).

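Polyketide synthase Pks13, Mycobacterium tuberculosis (UniProt I6X8D2). Enzyme assay of the thioesterase domain of polyketide synthase 13; the read-out is not stated. Concentration: 30 µM. Higher reads as stronger inhibition (inferred from which compounds were picked for retests). Of about 67,000 compounds tested this way, about 300 (0.46%) reached 50% or more in at least one test.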

Results are given as percent effect. The record does not define 0% and 100%; most values in the screen are far below 50% and negative numbers occur (in some assays of this library far below -100). The compounds are a random part of those screened.

{"compound": "Cc1c(C(=O)NC2CCCOC2)nnn1-c1ccc(Cl)cc1F", "stereo": "stereo not drawn", "percent effect": -4.02}
{"compound": "COc1ccnc(N2CCN(C(=O)Cc3csc(C)n3)CC2)n1", "percent effect": -6.22}
{"compound": "COc1cccc(CCC(=O)N2CCCCC2Cn2cccn2)c1", "stereo": "stereo not drawn", "percent effect": -16.39}
{"compound": "CN(CC1CCCCO1)c1nc2c(cc1C(N)=O)CCC2", "stereo": "stereo not drawn", "percent effect": -11.63}
{"compound": "Cc1cccc(CN2CCCCC23CCNC3)n1", "stereo": "stereo not drawn", "percent effect": -18.14}
{"compound": "O=C(CCn1ccnc1)N1CCCC(n2cncn2)C1", "stereo": "stereo not drawn", "percent effect": -17.65}
{"compound": "CC(=O)NCC(=O)N1CCOC2(CCCN(c3ccc(C)nn3)C2)C1", "stereo": "stereo not drawn", "percent effect": -12.78}
{"compound": "OCCN1CCC2(CCc3cc(-c4ccoc4)ccc32)CC1", "percent effect": -22.82}
{"compound": "Cc1nn(C)c(C)c1CNCc1ccc(N2CCOCC2)nc1", "percent effect": 8.185}
{"compound": "CCc1ncncc1C(=O)NC1CCc2nc(C)cn2C1", "stereo": "stereo not drawn", "percent effect": -11.36}
{"compound": "NS(=O)(=O)CC1CCCN(C(=O)CCCC2CCCC2)C1", "stereo": "stereo not drawn", "percent effect": 2.588}
{"compound": "CC(C)NC(=O)N1CCCC2(CCN(c3ccsc3)C2=O)C1", "stereo": "stereo not drawn", "percent effect": -15.5}
{"compound": "CCCC(NC(=O)c1cnccn1)c1nnc2ccccn12", "stereo": "stereo not drawn", "percent effect": -23.9}
{"compound": "CCn1ncnc1C(C)Nc1cc(C2CCNCC2)nc(C)n1", "stereo": "stereo not drawn", "percent effect": 6.085}
{"compound": "CCCn1ccnc1CN1CCC(Oc2ccc(Cl)cc2)(C(=O)O)CC1", "percent effect": -0.7621}
{"compound": "CCN(CC)C(=O)CCNC(=O)Cc1nc(-c2ccco2)oc1C", "percent effect": -11.85}
{"compound": "Cc1noc(C)c1CCNc1nccc(CCC(F)(F)F)n1", "percent effect": -35.06}
{"compound": "O=C(NCCN1CCCC1)c1ccc2c(-c3nccs3)noc2c1", "percent effect": -17.66}
{"compound": "CN(CCc1cccs1)C(=O)Nc1ccc2c(c1)C(=O)N(C)CC2", "percent effect": 31.87}
{"compound": "NS(=O)(=O)CCNC(=O)C1(c2ccc(Br)cc2)CC1", "percent effect": -7.489}
{"compound": "CNc1nc(CNC(=O)Nc2cccc(-n3ccc(C)n3)c2)cs1", "percent effect": -10.82}
{"compound": "NC(=O)C1CCCN1C(=O)c1cc(C2CC2)nc2ccc(F)cc12", "stereo": "stereo not drawn", "percent effect": -9.511}
{"compound": "COCCCN1C(=O)CC[C@H]2CN(c3cnc4ccccc4n3)CC[C@H]21", "percent effect": 10.44}
{"compound": "Cn1cc(CCC(=O)NCc2ccccc2OC(C)(C)C)cn1", "percent effect": -7.59}
{"compound": "CCC1=N[C@@]2(CC[C@@H]3CN(S(=O)(=O)CC)C[C@@H]32)C(=O)N1CC", "percent effect": -13.23}
{"compound": "COC(=O)CCN(C)C(=O)c1csc(Cc2ccccc2F)n1", "percent effect": -9.895}
{"compound": "Cc1nn(C)c(C)c1C1CCCN1CC(=O)N(C)c1nccs1", "stereo": "stereo not drawn", "percent effect": -8.801}
{"compound": "Cc1ccccc1C(=O)N1CCCn2cnc(CN3CCCC3=O)c2C1", "percent effect": -6.548}
{"compound": "Cn1cccc1CN1CCC2(CC1)CCN(C(=O)c1cnccn1)CC2", "percent effect": 25.02}

Some entries from above, unchanged:

compound,percent effect
COCCCN1C(=O)CC[C@H]2CN(c3cnc4ccccc4n3)CC[C@H]21,10.44%
NS(=O)(=O)CC1CCCN(C(=O)CCCC2CCCC2)C1 (stereo not drawn),2.588%
Cc1c(C(=O)NC2CCCOC2)nnn1-c1ccc(Cl)cc1F (stereo not drawn),-4.02%